These are yes or no findings as the source states them, for the method shown. In cells and extracts the contact can be indirect. Some binding calls cover weakened binding; strength is not graded here.

Sequences of proteins named here, by UniProt entry; tags and fusion partners are left off. Residues count along the entry.
UniProt P53598, residues 25-329: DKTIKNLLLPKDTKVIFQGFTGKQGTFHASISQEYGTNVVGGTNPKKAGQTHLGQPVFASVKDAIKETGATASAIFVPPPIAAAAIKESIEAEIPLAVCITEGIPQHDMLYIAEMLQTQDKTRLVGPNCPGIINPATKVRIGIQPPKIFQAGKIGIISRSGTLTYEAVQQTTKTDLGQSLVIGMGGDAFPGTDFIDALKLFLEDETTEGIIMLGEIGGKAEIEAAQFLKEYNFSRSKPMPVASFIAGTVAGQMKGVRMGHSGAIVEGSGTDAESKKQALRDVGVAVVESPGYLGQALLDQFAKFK
UniProt Q00711, residues 29-640: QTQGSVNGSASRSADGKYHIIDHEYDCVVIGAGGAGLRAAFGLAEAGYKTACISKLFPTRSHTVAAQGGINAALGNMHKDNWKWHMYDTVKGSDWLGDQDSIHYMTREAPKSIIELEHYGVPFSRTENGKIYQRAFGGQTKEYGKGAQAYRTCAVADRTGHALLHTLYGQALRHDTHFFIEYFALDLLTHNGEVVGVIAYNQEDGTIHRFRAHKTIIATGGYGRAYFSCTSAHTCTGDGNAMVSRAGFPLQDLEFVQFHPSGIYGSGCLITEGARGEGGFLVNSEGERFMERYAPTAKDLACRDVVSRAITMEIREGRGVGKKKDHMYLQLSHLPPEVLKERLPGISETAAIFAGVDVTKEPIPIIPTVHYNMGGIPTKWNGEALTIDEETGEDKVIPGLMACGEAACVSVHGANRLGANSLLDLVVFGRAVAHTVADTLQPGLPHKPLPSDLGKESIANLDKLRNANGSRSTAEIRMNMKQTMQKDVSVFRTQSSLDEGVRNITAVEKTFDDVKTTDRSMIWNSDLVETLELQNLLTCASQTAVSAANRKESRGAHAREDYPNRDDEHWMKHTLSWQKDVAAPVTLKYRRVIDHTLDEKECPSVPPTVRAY

What all share (test): cross-linking; intact purified yeast mitochondria (5 mg/ml, isotonic buffer: 250 mM sucrose, 1 mM EDTA, 10 mM MOPS-KOH, pH 7.2) crosslinked in organello with 2 mM CBDPS-H8/D8, 21 °C 10 min then on ice 110 min; Lys-Lys inter-protein crosslinked peptides enriched (SCX, avidin) and identified by LC-MS/MS, FDR 2%
The target in test [1] is T1, CBP3 (yeast (endogenous in mitochondria of strain YPH499)) (UniProt P21560).
T1 sequence: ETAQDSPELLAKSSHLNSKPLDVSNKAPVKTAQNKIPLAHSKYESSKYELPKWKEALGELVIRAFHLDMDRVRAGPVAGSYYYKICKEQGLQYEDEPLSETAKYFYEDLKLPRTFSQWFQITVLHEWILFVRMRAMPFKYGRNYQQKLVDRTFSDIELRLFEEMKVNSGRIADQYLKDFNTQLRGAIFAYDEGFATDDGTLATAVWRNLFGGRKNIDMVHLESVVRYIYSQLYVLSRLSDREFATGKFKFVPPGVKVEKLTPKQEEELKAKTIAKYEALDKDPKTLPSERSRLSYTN

The target in test [2] is LSC1 (yeast (endogenous in mitochondria of strain YPH499)) (UniProt P53598).
Test [3] has as its target T2, NDE1 (yeast (endogenous in mitochondria of strain YPH499)) (UniProt P40215).
T2 sequence: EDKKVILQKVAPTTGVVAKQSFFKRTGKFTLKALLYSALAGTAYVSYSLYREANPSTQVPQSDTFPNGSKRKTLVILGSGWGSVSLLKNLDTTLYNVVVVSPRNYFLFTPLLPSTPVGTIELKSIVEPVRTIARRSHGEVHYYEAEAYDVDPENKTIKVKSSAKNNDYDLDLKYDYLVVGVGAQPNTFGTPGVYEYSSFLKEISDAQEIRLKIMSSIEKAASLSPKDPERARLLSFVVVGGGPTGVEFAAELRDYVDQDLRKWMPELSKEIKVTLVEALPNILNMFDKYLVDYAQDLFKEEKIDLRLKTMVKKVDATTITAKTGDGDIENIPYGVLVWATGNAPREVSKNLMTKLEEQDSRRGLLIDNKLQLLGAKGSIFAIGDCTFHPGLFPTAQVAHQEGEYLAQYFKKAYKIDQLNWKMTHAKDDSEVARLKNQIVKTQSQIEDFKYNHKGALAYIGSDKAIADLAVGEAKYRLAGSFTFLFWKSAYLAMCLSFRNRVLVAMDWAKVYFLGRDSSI

The target in test [4] is SDH1 (yeast (endogenous in mitochondria of strain YPH499)) (UniProt Q00711).
Test [5] has as its target T3, FMP16 (yeast (endogenous in mitochondria of strain YPH499)) (UniProt Q12497).
T3 sequence: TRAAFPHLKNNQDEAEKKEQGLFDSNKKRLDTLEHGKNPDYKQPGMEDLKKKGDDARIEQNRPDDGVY

The target of test [6] is T4, PHB2 (yeast (endogenous in mitochondria of strain YPH499)) (UniProt P50085).
T4 sequence: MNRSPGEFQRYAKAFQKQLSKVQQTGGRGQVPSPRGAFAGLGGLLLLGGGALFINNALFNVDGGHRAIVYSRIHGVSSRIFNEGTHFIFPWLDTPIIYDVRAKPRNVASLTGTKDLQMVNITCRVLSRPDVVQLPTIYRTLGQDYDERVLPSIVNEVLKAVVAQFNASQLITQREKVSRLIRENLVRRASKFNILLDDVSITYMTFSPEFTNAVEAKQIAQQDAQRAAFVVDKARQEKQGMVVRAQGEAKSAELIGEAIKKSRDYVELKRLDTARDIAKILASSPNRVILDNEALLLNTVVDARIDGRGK

Test [7] has as its target T5, ATP3 (yeast (endogenous in mitochondria of strain YPH499)) (UniProt P38077).
T5 sequence: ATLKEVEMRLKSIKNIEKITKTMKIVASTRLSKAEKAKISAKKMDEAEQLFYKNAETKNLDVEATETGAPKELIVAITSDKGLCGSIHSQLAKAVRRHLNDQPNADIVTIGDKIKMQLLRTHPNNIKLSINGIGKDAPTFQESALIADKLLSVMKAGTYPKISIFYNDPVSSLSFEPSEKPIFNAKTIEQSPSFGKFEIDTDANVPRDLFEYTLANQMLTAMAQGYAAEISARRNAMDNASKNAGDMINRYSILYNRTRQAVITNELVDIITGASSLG

B1: CBP6 (protein, UniProt P07253 1-162)
chain: MSSSQVVRDSAKKLVNLLEKYPKDRIHHLVSFRDVQIARFRRVAGLPNVDDKGKSIKEKKPSLDEIKSIINRTSGPLGLNKEMLTKIQNKMVDEKFTEESINEQIRALSTIMNNKFRNYYDIGDKLYKPAGNPQYYQRLINAVDGKKKESLFTAMRTVLFGK
Consider B1, for which the binding entry in test [1] is “binds”.

B2: LSC2 (protein, UniProt P53312 31-427)
chain: LSIHEYRSAQLLREYGIGTPEGFPAFTPEEAFEAAKKLNTNKLVIKAQALTGGRGKGHFDTGYKSGVHMIESPQQAEDVAKEMLNHNLITKQTGIAGKPVSAVYIVKRVDTKHEAYLSILMDRQTKKPMIIASSQGGMNIEEVAERTPDAIKKFSIETSKGLSPQMAKDVAKSLGFSPDAQDEAAKAVSNLYKIFMERDATQVEINPLSEIEHDPTHKIMCTDAKFGFDDNASFRQEKIYSWRDLSQEDPDEVKAKKYDLNFVKLKGNIGCLVNGAGLAMATMDVIKLNGGDPANFLDCGGGATPETIKQGFELILSNKNVDAIFVNIFGGIVRCDYVALGLVEAARELEVRVPIVARLQGTKVEEGRDIINKSGVKIYSFDELDPAAKKVVELTQN
On to B2, for which the binding entry in test [2] is on record as “binds”.

B3: CYT1 (protein, UniProt P07143 62-309)
chain: MTAAEHGLHAPAYAWSHNGPFETFDHASIRRGYQVYREVCAACHSLDRVAWRTLVGVSHTNEEVRNMAEEFEYDDEPDEQGNPKKRPGKLSDYIPGPYPNEQAARAANQGALPPDLSLIVKARHGGCDYIFSLLTGYPDEPPAGVALPPGSNYNPYFPGGSIAMARVLFDDMVEYEDGTPATTSQMAKDVTTFLNWCAEPEHDERKRLGLKTVIILSSLYLLSIWVKKFKWAGIKTRKFVFNPPKPRK
Turning to B3, the binding result in test [3] is “binds”.

B4: OM45 (protein, UniProt P16547 1-393)
chain: MSSRIIVGSAALAAAITASIMVREQKAKGQRREGNVSAYYNGQEYGSSAPPQLGKLHNIKQGIKEDALSLKDALLGVSQKAREEAPKVTKRVISPEEDAQTRKQLGQKAKDSSSQSIFNWGFSEAERRKAIAIGEFDTAKKRFEEAVDRNEKELLSTVMREKKAALDRASIEYERYGRARDFNELSDKLDQQERNSNPLKRLLKNNTGDANTEEAAARSVQGWGDTAQEFGREELEEAKRNASSEPSEAQKRLDELKKIKEKGWFGYNKGEQSEQQIAERVARGLEGWGETAAQLSKDEMDDLRWNYENSKKQLDKNVSDAMDSLSKAKEDLKQYGSHWWSGWTSKVDNDKQALKDEAQKKYDEALKKYDEAKNKFKEWNDKGDGKFWSSKKD
As to B4, the binding entry in test [3] is given as “binds”.

B5: SDH2 (protein, UniProt P21801 21-266)
chain: TATTAAATHTPRLKTFKVYRWNPDEPSAKPHLQSYQVDLNDCGPMVLDALLKIKDEQDSTLTFRRSCREGICGSCAMNIGGRNTLACICKIDQNESKQLKIYPLPHMFIVKDLVPDLTNFYQQYKSIQPYLQRSSFPKDGTEVLQSIEDRKKLDGLYECILCACCSTSCPSYWWNQEQYLGPAVLMQAYRWLIDSRDQATKTRKAMLNNSMSLYRCHTIMNCTRTCPKGLNPGLAIAEIKKSLAFA
On to B5, for which, in test [4], the binding result is on record as “binds”.

B6: ACO1 (protein, UniProt P19414 17-778)
chain: ATVSNLTRDSKVNQNLLEDHSFINYKQNVETLDIVRKRLNRPFTYAEKILYGHLDDPHGQDIQRGVSYLKLRPDRVACQDATAQMAILQFMSAGLPQVAKPVTVHCDHLIQAQVGGEKDLKRAIDLNKEVYDFLASATAKYNMGFWKPGSGIIHQIVLENYAFPGALIIGTDSHTPNAGGLGQLAIGVGGADAVDVMAGRPWELKAPKILGVKLTGKMNGWTSPKDIILKLAGITTVKGGTGKIVEYFGDGVDTFSATGMGTICNMGAEIGATTSVFPFNKSMIEYLEATGRGKIADFAKLYHKDLLSADKDAEYDEVVEIDLNTLEPYINGPFTPDLATPVSKMKEVAVANNWPLDVRVGLIGSCTNSSYEDMSRSASIVKDAAAHGLKSKTIFTVTPGSEQIRATIERDGQLETFKEFGGIVLANACGPCIGQWDRRDIKKGDKNTIVSSYNRNFTSRNDGNPQTHAFVASPELVTAFAIAGDLRFNPLTDKLKDKDGNEFMLKPPHGDGLPQRGYDAGENTYQAPPADRSTVEVKVSPTSDRLQLLKPFKPWDGKDAKDMPILIKAVGKTTTDHISMAGPWLKYRGHLENISNNYMIGAINAENKKANCVKNVYTGEYKGVPDTARDYRDQGIKWVVIGDENFGEGSSREHAALEPRFLGGFAIITKSFARIHETNLKKQGLLPLNFKNPADYDKINPDDRIDILGLAELAPGKPVTMRVHPKNGKPWDAVLTHTFNDEQIEWFKYGSALNKIKADEKK
As for B6, the binding result in test [5] is recorded as “binds”.

B7: SDH3 (protein, UniProt P33421 51-198)
chain: NVASEMNTKAAIAEEQILNKQRAKRPISPHLTIYQPQLTWYLSSLHRISLVLMGLGFYLFTILFGVSGLLGLGLTTEKVSNWYHQKFSKITEWSIKGSFAYLFAIHYGGAIRHLIWDTAKELTLKGVYRTGYALIGFTAVLGTYLLTL
For the molecule B7, in test [4], the binding entry is given as “binds”.

B8: PHB1 (protein, UniProt P40961 1-287)
chain: MSNSAKLIDVITKVALPIGIIASGIQYSMYDVKGGSRGVIFDRINGVKQQVVGEGTHFLVPWLQKAIIYDVRTKPKSIATNTGTKDLQMVSLTLRVLHRPEVLQLPAIYQNLGLDYDERVLPSIGNEVLKSIVAQFDAAELITQREIISQKIRKELSTRANEFGIKLEDVSITHMTFGPEFTKAVEQKQIAQQDAERAKFLVEKAEQERQASVIRAEGEAESAEFISKALAKVGDGLLLIRRLEASKDIAQTLANSSNVVYLPSQHSGGGNSESSGSPNSLLLNIGR
For B8, the binding entry in test [6] is given as “binds”.

B9: ATP15 (protein, UniProt P21306 1-62)
chain: MSAWRKAGISYAAYLNVAAQAIRSSLKTELQTASVLNRSQTDAFYTQYKNGTAASEPTPITK
On to B9, for which the binding result in test [7] was “binds”.

Values taken from publication PMC7124466.
